# Test results: PMC7582905, “Effect of Disulfide Cyclization of Ultrashort Cationic Lipopeptides on Antimicrobial Activity and Cytotoxicity” (International Journal of Molecular Sciences, 2020)
# Where a SMILES comes first, the peptide text is derived from it. Bridges are numbered along the chain shown (N, C = ends). The star is where a group is joined. Palmitoyl = CCCCCCCCCCCCCCCC(=O)*
# Columns and labels:
# Type in all cases: cell-based
# [1] = tested on: human cervical adenocarcinoma cell line (HeLa S3); assay: MTT assay; conditions: selectivity index
# Procedure: To assess the cytotoxicity of the test lipopeptides (IC50), the classic MTT assay on 96-well polystyrene plates was performed for human keratinocytes (HaCaT) and human cervical adenocarcinoma cell line (HeLa S3) acquired from the ATCC. The assay utilizes colorimetric determination of the cell metabolic activity and the color intensity reflects the number of live cells that can be measured spectrophotometrically. The cell line was cultured in a Dulbecco’s modified Eagle Medium (Invitrogen) supplemented with 10% fetal bovine serum (v/v), 100 units/mL of penicillin, 100 μg/mL of streptomycin, and 2 mM l-glutamine and was stored at 37 °C in a humidified 5% CO2 incubator. Briefly, a day after plating of 500 cells per well, a series of concentrations (0.1–200 μg/mL) of the test compounds were applied. DMSO was added to the control cells at a final concentration of 1.0% (v/v), which was related to the maximal concentration of the solvent compounds used in the experiment. After 24 h of incubation with the lipopeptides at 37 °C in a humidified 5% CO2 incubator, a medium containing 1 mg/mL of MTT (3-(4,5-dimethylthiazol-2-yl)-2,5-diphenyltetrazolium bromide) was added to the wells up to a final concentration of 0.5 mg/mL. Subsequently, the plates were incubated at 37 °C for 4 h. Then, the medium was removed by suction, and the formazan product was solubilized with DMSO. The background absorbance at 630 nm was subtracted from that at 570 nm for each well (Epoch, BioTek Instruments, Winooski, VT, USA). Six replicates were conducted for each concentration. All experiments were repeated at least twice and the resulting IC50 values were calculated with a GraFit 7 software (v. 7.0, Erithacus, Berkley, CA, USA).
# [2] = tested on: Candida glabrata ATCC 15126; conditions: for SI = IC50HaCaT/MIC, C. glabrata: selectivity index HaCaT (right value); for SI = HC50/MIC, C. glabrata: selectivity index hRBCs (left value)
# Procedure: (§1) The Staphylococcus aureus ATCC 25923, Staphylococcus epidermidis ATCC 14990, Escherichia coli ATCC 25922, Pseudomonas aeruginosa ATCC 9027, Candida albicans ATCC 10231, Candida glabrata ATCC 15126, Candida lipolytica PCM 2680-FY, and Candida tropicalis PCM 2709-FY strains were acquired from the Polish Collection of Microorganisms (PCM, Polish Academy of Sciences, Wrocław, Poland) and from the American Type Culture Collection (ATCC). All the strains were stored at −80 °C in Roti-Store cryo vials and before the tests were transferred into fresh Mueller–Hinton broth (MHB, Biocorp, Warsaw, Poland) for bacteria or RPMI-1640 (Sigma-Aldrich, Steinheim, Germany) for fungi and incubated for 24 h at 37 °C. Then, the cultures were seeded on Mueller–Hinton agar (BioMaxima, Lublin, Poland) or Sabouraud dextrose agar (SDA, BioMaxima, Lublin, Poland) plates, respectively, and incubated as just mentioned. These agar cultures were used for further microbiological assays. Cell densities for all assays were adjusted spectrophotometrically (Multiskan GO Microplate Spectrophotometer, Thermo Fisher Scientific, Vantaa, Finland) at 600 and 660 nm for bacteria and fungi, respectively.
# (§2) The MICs were determined by broth microdilution method according to the Clinical and Laboratory Standard Institute guidelines For this purpose, initial inoculums of bacteria (5 × 10^5 CFU/mL) in MHB and yeasts (2 × 10^3 CFU/mL) in RPMI-1640 with 2% D-glucose were exposed to the ranging concentration of lipopeptides (0.5–256 μg/mL) and incubated at 37 °C for 18 h and 24 h, respectively. The experiments were conducted on 96-well microtiter polystyrene plates. The growth was assessed visually after incubation and the MIC was assumed as the lowest peptide concentration at which a noticeable growth of microorganisms was inhibited. All experiments were conducted in triplicate.
# [3] = tested on: Candida albicans ATCC 10231; conditions: for SI = IC50HaCaT/MIC, C. albicans: selectivity index HaCaT (right value); for SI = HC50/MIC, C. albicans: selectivity index hRBCs (left value)
# Procedure: as §1, §2
# [4] = tested on: Staphylococcus epidermidis ATCC 14990; conditions: for SI = IC50HaCaT/MIC, S. epidermidis: selectivity index HaCaT (right value); for SI = HC50/MIC, S. epidermidis: selectivity index hRBCs (left value)
# Procedure: as §1, §2
# [5] = tested on: Pseudomonas aeruginosa ATCC 9027; conditions: for SI = IC50HaCaT/MIC, P. aeruginosa: selectivity index HaCaT (right value); for SI = HC50/MIC, P. aeruginosa: selectivity index hRBCs (left value)
# Procedure: as §1, §2
# [6] = tested on: Escherichia coli ATCC 25922; conditions: for SI = IC50HaCaT/MIC, E. coli: selectivity index HaCaT (right value); for SI = HC50/MIC, E. coli: selectivity index hRBCs (left value)
# Procedure: as §1, §2
# [7] = tested on: Candida tropicalis PCM 2709-FY; conditions: for SI = IC50HaCaT/MIC, C. tropicalis: selectivity index HaCaT (right value); for SI = HC50/MIC, C. tropicalis: selectivity index hRBCs (left value)
# Procedure: as §1, §2
# [8] = tested on: Candida lipolytica PCM 2680-FY; conditions: for SI = IC50HaCaT/MIC, C. lipolytica: selectivity index HaCaT (right value); for SI = HC50/MIC, C. lipolytica: selectivity index hRBCs (left value)
# Procedure: as §1, §2
smiles,measurement,setting,value
"CCCCCCCCCCCCCCCC(=O)N[C@@H](CCCCN)C(=O)N[C@@H](CCCCN)C(=O)N[C@@H](CCCCN)C(=O)N[C@@H](CCCNC(=N)N)C(N)=O [L6, C16-KKKR-NH2] (Palmitoyl-KKKR-NH2)",SI (IC50 HaCaT/ IC50 HeLa),[1],2.1
"CCCCCCCCCCCCCCCC(=O)N[C@H]1CSSC[C@@H](C(N)=O)NC(=O)[C@H](CCCCN)NC(=O)[C@H](CCCCN)NC(=O)[C@H](CCCCN)NC(=O)[C@H](CCCNC(=N)N)NC1=O [C3, C16-CRKKKC-NH2] (Palmitoyl-CRKKKC-NH2; disulfide 1-6)",SI (IC50 HaCaT/ IC50 HeLa),[1],0.9
"CCCCCCCCCCCCCCCC(=O)N[C@@H](CCCCN)C(=O)N[C@@H](CCCCN)C(=O)N[C@@H](CCCCN)C(=O)N[C@@H](CCCCN)C(N)=O [L2, C16-KKKK-NH2] (Palmitoyl-KKKK-NH2)",SI (IC50 HaCaT/ IC50 HeLa),[1],1.8
same,"SI = IC50HaCaT/MIC, C. glabrata",[2],0.37
same,"SI = HC50/MIC, C. glabrata",[2],1.65
same,"SI = IC50HaCaT/MIC, C. albicans",[3],0.73
same,"SI = HC50/MIC, C. albicans",[3],3.31
same,"SI = IC50HaCaT/MIC, S. epidermidis",[4],2.94
same,"SI = HC50/MIC, S. epidermidis",[4],13.24
same,"SI = IC50HaCaT/MIC, P. aeruginosa",[5],1.47
same,"SI = HC50/MIC, P. aeruginosa",[5],6.62
same,"SI = IC50HaCaT/MIC, E. coli",[6],0.73
same,"SI = HC50/MIC, E. coli",[6],3.31
same,"SI = IC50HaCaT/MIC, C. tropicalis",[7],5.88
same,"SI = HC50/MIC, C. tropicalis",[7],26.48
same,"SI = IC50HaCaT/MIC, C. lipolytica",[8],2.94
same,"SI = HC50/MIC, C. lipolytica",[8],13.24
"CCCCCCCCCCCCCCCC(=O)N[C@H]1CSSC[C@@H](C(N)=O)NC(=O)[C@H](CCCCN)NC(=O)[C@H](CCCNC(=N)N)NC(=O)[C@H](CCCCN)NC(=O)[C@H](CCCCN)NC1=O [C5, C16-CKKRKC-NH2] (Palmitoyl-CKKRKC-NH2; disulfide 1-6)",SI (IC50 HaCaT/ IC50 HeLa),[1],0.6
"CCCCCCCCCCCCCCCC(=O)N[C@H]1CSSC[C@@H](C(N)=O)NC(=O)[C@H](CCCCN)NC(=O)[C@H](CCCCN)NC(=O)[C@H](CCCNC(=N)N)NC(=O)[C@H](CCCNC(=N)N)NC1=O [C7, C16-CRRKKC-NH2] (Palmitoyl-CRRKKC-NH2; disulfide 1-6)",SI (IC50 HaCaT/ IC50 HeLa),[1],1.0
"CCCCCCCCCCCCCCCC(=O)N[C@H]1CSSC[C@@H](C(N)=O)NC(=O)[C@H](CCCCN)NC(=O)[C@H](CCCCN)NC(=O)[C@H](CCCCN)NC1=O [C1, C16-CKKKC-NH2] (Palmitoyl-CKKKC-NH2; disulfide 1-5)",SI (IC50 HaCaT/ IC50 HeLa),[1],0.9
"CCCCCCCCCCCCCCCC(=O)N[C@H]1CSSC[C@@H](C(N)=O)NC(=O)[C@H](CCCCN)NC(=O)[C@H](CCCCN)NC(=O)[C@H](CCCCN)NC(=O)[C@H](CCCCN)NC1=O [C2, C16-CKKKKC-NH2] (Palmitoyl-CKKKKC-NH2; disulfide 1-6)",SI (IC50 HaCaT/ IC50 HeLa),[1],1.5
same,"SI = IC50HaCaT/MIC, C. glabrata",[2],6.73
same,"SI = HC50/MIC, C. glabrata",[2],7.65
same,"SI = IC50HaCaT/MIC, C. albicans",[3],6.73
same,"SI = HC50/MIC, C. albicans",[3],7.65
same,"SI = IC50HaCaT/MIC, S. epidermidis",[4],3.36
same,"SI = HC50/MIC, S. epidermidis",[4],3.83
same,"SI = IC50HaCaT/MIC, P. aeruginosa",[5],0.84
same,"SI = HC50/MIC, P. aeruginosa",[5],0.96
same,"SI = IC50HaCaT/MIC, E. coli",[6],0.42
same,"SI = HC50/MIC, E. coli",[6],0.48
same,"SI = IC50HaCaT/MIC, C. tropicalis",[7],13.45
same,"SI = HC50/MIC, C. tropicalis",[7],15.30
same,"SI = IC50HaCaT/MIC, C. lipolytica",[8],13.45
same,"SI = HC50/MIC, C. lipolytica",[8],15.30
"CCCCCCCCCCCCCCCC(=O)N[C@H]1CSSC[C@@H](C(N)=O)NC(=O)[C@H](CCCNC(=N)N)NC(=O)[C@H](CCCCN)NC(=O)[C@H](CCCCN)NC(=O)[C@H](CCCCN)NC1=O [C6, C16-CKKKRC-NH2] (Palmitoyl-CKKKRC-NH2; disulfide 1-6)",SI (IC50 HaCaT/ IC50 HeLa),[1],1.5
"CCCCCCCCCCCCCCCC(=O)N[C@@H](CCCCN)C(=O)N[C@@H](CCCNC(=N)N)C(=O)N[C@@H](CCCCN)C(=O)N[C@@H](CCCCN)C(N)=O [L4, C16-KRKK-NH2] (Palmitoyl-KRKK-NH2)",SI (IC50 HaCaT/ IC50 HeLa),[1],1.4
same,"SI = IC50HaCaT/MIC, C. glabrata",[2],0.13
same,"SI = HC50/MIC, C. glabrata",[2],2.49
same,"SI = IC50HaCaT/MIC, C. albicans",[3],0.27
same,"SI = HC50/MIC, C. albicans",[3],4.99
same,"SI = IC50HaCaT/MIC, S. epidermidis",[4],0.54
same,"SI = HC50/MIC, S. epidermidis",[4],9.98
same,"SI = IC50HaCaT/MIC, P. aeruginosa",[5],0.13
same,"SI = HC50/MIC, P. aeruginosa",[5],2.49
same,"SI = IC50HaCaT/MIC, E. coli",[6],0.54
same,"SI = HC50/MIC, E. coli",[6],9.98
same,"SI = IC50HaCaT/MIC, C. tropicalis",[7],2.15
same,"SI = HC50/MIC, C. tropicalis",[7],39.90
same,"SI = IC50HaCaT/MIC, C. lipolytica",[8],4.30
same,"SI = HC50/MIC, C. lipolytica",[8],79.80
"CCCCCCCCCCCCCCCC(=O)N[C@H]1CSSC[C@@H](C(N)=O)NC(=O)[C@H](CCCCN)NC(=O)[C@H](CCCCN)NC(=O)[C@H](CCCNC(=N)N)NC(=O)[C@H](CCCCN)NC1=O [C4, C16-CKRKKC-NH2] (Palmitoyl-CKRKKC-NH2; disulfide 1-6)",SI (IC50 HaCaT/ IC50 HeLa),[1],1.2
same,"SI = IC50HaCaT/MIC, C. glabrata",[2],8.45
same,"SI = HC50/MIC, C. glabrata",[2],30.60
same,"SI = IC50HaCaT/MIC, C. albicans",[3],16.90
same,"SI = HC50/MIC, C. albicans",[3],61.20
same,"SI = IC50HaCaT/MIC, S. epidermidis",[4],4.23
same,"SI = HC50/MIC, S. epidermidis",[4],15.30
same,"SI = IC50HaCaT/MIC, P. aeruginosa",[5],0.13
same,"SI = HC50/MIC, P. aeruginosa",[5],0.48
same,"SI = IC50HaCaT/MIC, E. coli",[6],1.06
same,"SI = HC50/MIC, E. coli",[6],3.83
same,"SI = IC50HaCaT/MIC, C. tropicalis",[7],16.90
same,"SI = HC50/MIC, C. tropicalis",[7],61.20
same,"SI = IC50HaCaT/MIC, C. lipolytica",[8],33.80
same,"SI = HC50/MIC, C. lipolytica",[8],122.40
"CCCCCCCCCCCCCCCC(=O)N[C@@H](CCCCN)C(=O)N[C@@H](CCCCN)C(=O)N[C@@H](CCCNC(=N)N)C(=O)N[C@@H](CCCCN)C(N)=O [L5, C16-KKRK-NH2] (Palmitoyl-KKRK-NH2)",SI (IC50 HaCaT/ IC50 HeLa),[1],0.4
"CCCCCCCCCCCCCCCC(=O)N[C@@H](CCCCN)C(=O)N[C@@H](CCCCN)C(=O)N[C@@H](CCCCN)C(N)=O [L1, C16-KKK-NH2]",SI (IC50 HaCaT/ IC50 HeLa),[1],1.3
"CCCCCCCCCCCCCCCC(=O)N[C@@H](CCCNC(=N)N)C(=O)N[C@@H](CCCCN)C(=O)N[C@@H](CCCCN)C(=O)N[C@@H](CCCCN)C(N)=O [L3, C16-RKKK-NH2] (Palmitoyl-RKKK-NH2)",SI (IC50 HaCaT/ IC50 HeLa),[1],2.8
"CCCCCCCCCCCCCCCC(=O)N[C@@H](CCCNC(=N)N)C(=O)N[C@@H](CCCNC(=N)N)C(=O)N[C@@H](CCCCN)C(=O)N[C@@H](CCCCN)C(N)=O [L7, C16-RRKK-NH2] (Palmitoyl-RRKK-NH2)",SI (IC50 HaCaT/ IC50 HeLa),[1],2.7
